# Experimental data: PubChem BioAssay AID504804 (Drosophila RNAi Screening Center, 2011)
# Assay: 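Knock-downs shielding fly cells from apoptosis caused by DNA damage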 (primary screen)
# System: Drosophila Kc cells
# Reagent: long dsRNA against Drosophila genes, 0.5 µg dsRNA per well
# Time to read-out: 96 h (48 h knock-down, then 48 h drug)
# Conditions: doxorubicin 5 µg/ml for 48 h, added 48 h after dsRNA
# Detection: 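Luminescent ATP counts per replicate, not normalised, reflecting viable cells after 48 h dsRNA knock-down followed by 48 h of 5 µg/ml doxorubicin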
# Scale: raw ATP luminescence: higher = more viable cells, protection from doxorubicin
# Hit rule: 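z-score of 2 or more over plate mean in both duplicates, retained only when retests and separate dsRNAs confirm the protection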
# The deposit covers about 19,000 reagents; shown is an unselected part of those with a known target gene and a result. Over the whole deposit, 47 (0.25%) got an active call. 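Signals are raw, not normalised; exact z-scores behind calls not deposited; actives needed confirmation, so some wells reaching 2 SD are inactive.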 Unmarked entries are inactive. A plus sign joins genes that one reagent is predicted to hit. No sequences are given here.
The opening 2 records as a preview:
target,PubChem SID,"raw ATP luminescence, replicate 1","raw ATP luminescence, replicate 2"
repo,SID104196161,38490,35260
mRpL33,SID104198111,45640,45500

Main list, from the start:
target,PubChem SID,"raw ATP luminescence, replicate 1","raw ATP luminescence, replicate 2"
repo,SID104196161,38490,35260
mRpL33,SID104198111,45640,45500
CG31953 (retired record) + gkt,SID104180501,1.10e5,64250
Bap170,SID104184756,65913,55247
heca,SID104196756,13430,17240
spn-B,SID104196855,84940,62890
CG7139,SID104191403,25517,20213
CG34288,SID104193356,2.92e5,2.64e5
MED25,SID104194275,16200,18690
CG15046,SID104199414,3.79e5,3.30e5
ORMDL,SID104191529,72967,67523
CG8032,SID104196157,69570,70713
CG3548,SID104184179,60160,52367
MED19,SID104190308,25520,22653
Mi-2 + Su(Tpl),SID104189432,67583,74750
CG42809 + CG42810,SID104182324,52147,76667
CG42809 + CG42810,SID104182325,76010,71247
T3dh + pgc,SID104184451,70547,54777
CG33255 (retired record) + hpRNA:CR32205 + hpRNA:CR32207,SID104189409,70353,70873
CG32814,SID104197462,2.65e5,2.72e5
LanA,SID104190999,36203,36370
CG5181,SID104182617,1.30e5,73460
brk,SID104198537,14320,17260
mtTFB2,SID104195311,45603,60740
Vajk2,SID104182332,79403,68060
Chpf,SID104199283,3.51e5,3.50e5
abs,SID104192164,20283,21667
CG9784,SID104200002,3.37e5,3.17e5
su(f),SID104200699,3.89e5,3.21e5
CG31676,SID104182179,60327,65577
Spn42De,SID104184803,52773,72357
jbug,SID104183744,68037,69907
jbug,SID104183906,67260,59000
jbug,SID104183959,90340,72857
jbug,SID104184180,48030,58463
